Results: patent US20060177907A1 (University of California, published 2006)
These are yes or no findings as the source states them, for the method shown. Some results given as binding are weak or reduced against the parent protein; the word gives no strength. Sequences can lack the tags named with a protein. Blank lines part the entries; values can stand above or below the molecule they belong to.

Key:
[1] = molecular target: T1, trx-hrg, thioredoxin-heregulin fusion with a C-terminal His and S-tag (human); experiment: SPR (BIAcore), immobilized trx-hrg
T1 sequence: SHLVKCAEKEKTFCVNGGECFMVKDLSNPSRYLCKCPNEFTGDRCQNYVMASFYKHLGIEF

[2] = molecular target: T1, trx-hrg, thioredoxin-heregulin fusion with a C-terminal His and S-tag (human); experiment: SPR (BIAcore), trx-hrg immobilized on a CM5 chip, HER3-ECD^I-II in solution
[3] = molecular target: T1, trx-hrg, thioredoxin-heregulin fusion with a C-terminal His and S-tag (human); experiment: pull-down on trx-hrg-coupled S-protein agarose
[4] = molecular target: T1, trx-hrg, thioredoxin-heregulin fusion with a C-terminal His and S-tag (human); experiment: SPR (BIAcore), immobilized trx-hrg (FIG. 7B legend)
[5] = molecular target: T1, trx-hrg, thioredoxin-heregulin fusion with a C-terminal His and S-tag (human); experiment: pull-down on S-tagged hrg on S-protein resin (FIG. 10A legend)

binding [1]: binds
Molecule: HER3^I-II E43A (from UniProt P21860 20-329) (receptor)

binding [1]: binds
Molecule: HER3^I-II V66A (from UniProt P21860 20-329) (receptor)

binding [1]: binds
Molecule: HER3^I-II K51A (from UniProt P21860 20-329) (receptor)

binding [2]: binds
binding [3]: binds
binding [4]: binds
binding [5]: binds
B1: HER3-ECD^I-II (residues 20-329), recombinant domains I and II of HER3 expressed in Drosophila S2 cells (receptor, not shown: small tags and cut ends)
chain: SEVGNSQAVCPGTLNGLSVTGDAENQYQTLYKLYERCEVVMGNLEIVLTGHNADLSFLQWIREVTGYVLVAMNEFSTLPLPNLRVVRGTQVYDGKFAIFVMLNYNTNSSHALRQLRLTQLTEILSGGVYIEKNDKLCHMDTIDWRDIVRDRDAEIVVKDNGRSCPPCHEVCKGRCWGPGSEDCQTLTKTICAPQCNGHCFGPNPNQCCHDECAGGCSGPQDTDCFACRHFNDSGACVPRCPQPLVYNKLTFQLEPNPHTKYQYGGVCVASCPHNFVVDQTSCVRACPPDKMEVDKNGLKMCEPCGGLCPK
notes: Monomer by light scattering and ultracentrifugation; The N-terminal Drosophila leader comes from the vector; the protein is secreted; also called HER3^I-II; H3 I-II
